Test results as given in PMC10000386.
Results are given in words; binding and its absence hold for the method and conditions named. Binding seen in cells or lysates may run through a third protein. Some entries that bind do so weakly or less than the wild type.

By UniProt entry, the sequences of proteins in these tests, tags left out. Where a name states a change or a piece, a line headed by the entry shows the natural chain unless it says otherwise.
UniProt Q07812: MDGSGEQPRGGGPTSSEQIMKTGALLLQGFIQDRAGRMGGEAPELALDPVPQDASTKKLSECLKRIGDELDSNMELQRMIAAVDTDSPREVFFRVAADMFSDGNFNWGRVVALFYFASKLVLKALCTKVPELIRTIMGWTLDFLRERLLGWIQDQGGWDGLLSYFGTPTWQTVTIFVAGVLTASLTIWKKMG
UniProt P10415: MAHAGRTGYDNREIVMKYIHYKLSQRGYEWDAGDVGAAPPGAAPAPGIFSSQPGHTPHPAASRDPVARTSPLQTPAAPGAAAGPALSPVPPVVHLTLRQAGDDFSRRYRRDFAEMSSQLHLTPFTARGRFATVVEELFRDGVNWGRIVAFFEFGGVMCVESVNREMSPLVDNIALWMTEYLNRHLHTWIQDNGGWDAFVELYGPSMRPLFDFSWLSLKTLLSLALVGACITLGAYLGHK
UniProt Q9BXH1: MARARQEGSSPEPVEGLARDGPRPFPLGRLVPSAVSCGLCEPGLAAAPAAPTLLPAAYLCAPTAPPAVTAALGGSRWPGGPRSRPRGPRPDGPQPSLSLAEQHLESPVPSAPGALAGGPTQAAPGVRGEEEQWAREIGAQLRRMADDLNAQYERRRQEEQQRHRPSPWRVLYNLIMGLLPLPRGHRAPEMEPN

Tests used:
[1] = target: Bax D33A (human) (UniProt Q07812); test: split reporter; BiFC: VN- and VC-Venus fragment fusions (N-terminal) co-transfected in HeLa cells with an mRFP vector, 30 µM Z-VAD-fmk, 37 °C, 24 h; Venus/mRFP mean fluorescence ratio of mRFP-positive cells by flow cytometry; in some experiments ABT-199, A-1155463 or S63845 added 1 h after transfection (reduced the complexes of Bcl-2, Bcl-XL or Mcl-1 with Bim, Puma and Noxa)
[2] = target: Bax K21E (human) (UniProt Q07812); test: as above

Row | Substance | binding [1] | binding [2]
1 | Bcl-2 (from UniProt P10415 1-239) | binds | 
2 | Puma (from UniProt Q9BXH1 1-193) | binds | binds
